Reference: patent US20080201790A1, “Method and product for regulating cell responsiveness to external signals” (priority 1993, published 2008)
At least one compound was matched to its structure with a doubt left.

Legend:
p42/p44 MAPK = assay: MAPK assay (DEAE-Sephacel, EGFR662-681 peptide) in L929 cells; format: cell-based, murine
Procedure: In panel A cells were treated for 10 minutes with the indicated concentration of TNFα. JNK activation was measured using a solid phase kinase assay resulting in phosphorylation of GST-Jun. In […] the time course of MAPK activation is shown. MAPK was isolated from cell lysates on DEAE sephacel columns and MAPK activation was measured by phosphorylation of the EGFR peptide substrate. Panel C depicts the concentration curve of MAPK activation by TNFα. Cells were treated with the indicated concentration of TNFα and MAPK was assayed.
FIG. 26 depicts the activation of MAPK by bFGF in L929 cells. Serum starved L929 cells were stimulated for 10 min with the indicated concentration of bFGF.
(§1) Cell lines and culture. […] JNK activity was measured using a solid state kinase assay in which glutathione S-transferase-c-Jun (1-79) (GST-JUN) cound to glutathione-Sepharose 4B beads was used to affinity purify JNK and then JNK activity was measured in an in vitro kinase assay using the sepharose bound GST-Jun as a substrate (Hibi, M., et al. (1993) Genes & Development 7:2135-2148). […] MAPK Assay MAPK activity was measured exactly as described previously (Gardner, A. M., et al. (1994) Meth. Enzymol. 238:258-270) with the exception that MonoQ FPLC fractionation was replaced by step elution from a DEAE-Sephacel column using 0.5 M NaCl in loading buffer. […]

L929 cells = assay: Neutral red cell viability assay of L929 cells treated with TNFα and/or bFGF; format: cell-based, murine
Procedure: In panel A cells were treated with the indicated concentrations of TNFα for 15 hours and were assayed for uptake of neutral red. In panel B cells were untreated (solid bars), treated with 0.5 ng/ml bFGF (dotted bars) or 5.0 ng/ml bFGF (hatched bars) and the indicated concentrations of TNFα for 18 hours. Cell viability was assessed by neutral red assay.
In panel A serum starved L929 cells were untreated or treated for 1 hour at 37° C. with the MEK-1 inhibitor (PD) and then unstimulated or stimulated with bFGF. MAPK activity was measured. […] Cell viability was assessed by neutral red assay.
as §1

Raf-B = Raf-B immunoprecipitate kinase assay from PC12 cells with kinase inactive MEK-1; format: cell-based
98 kD PC12 cell MEKK = assay: MEKK immunoprecipitate kinase assay from PC12 cells with kinase inactive MEK-1; format: cell-based
Procedure: Reactions were stopped by the addition of 2×SDS sample buffer (20 μl). The samples were boiled for 3 minutes and subjected to SDS-PAGE and autoradiography. Raf-B was immunoprecipitated from the same untreated and treated PC12 cell lysates as above with an antiserum to a COOH-terminal peptide of Raf-B (Santa Cruz Biotechnology, Inc.) and assayed similarly. Raf-1 was immunoprecipitated with an antiserum to the 12 COOH-terminal amino acids of Raf-1 (Santa Cruz Biotechnology, Inc.).
Data represent the relative magnitude of the response for each timepoint as quantitated by phosphorimager analysis of radioactive gels from a typical experiment.
Expression of N^17Ras was induced in PC12 clones stably transfected with the N^17Ras gene by the addition of dexamethasone to the starvation media. […] PC12 cell clones stably transfected with the N^17Ras gene are less responsive to EGF-mediated activation of MEKK activity than are wild type PC12 cells. […] MEKK activity in immunoprecipitates or column fractions was dissociable from that of EGF-stimulated c-Raf-1 and Raf-B activities.
To determine whether the growth factor-mediated activation of 98 kD PC12 cell MEKK was inhibited by PKA, forskolin was used to elevate intracellular cAMP and activate PKA. […] Raf-B activity was also assayed from the same cell lysates to test whether its regulation differed from that of MEKK. Raf-B was immunoprecipitated from the same cell lysates as described above and assayed for its ability to phosphorylate MEK-1 as described above.

[1] = PC12 cells, EGF 30 ng/ml 5 minutes
[2] = forskolin 50 μM, 3 minutes pretreatment

Compound: COC[C@H]1OC(=O)c2coc3c2[C@@]1(C)C1=C(C3=O)[C@@H]2CCC(=O)[C@@]2(C)C[C@H]1OC(C)=O [wortmannin, reference compound]
- effect on bFGF stimulation of MAPK activity (p42/p44 MAPK): had no effect on the ability of bFGF to stimulate MAPK activity
- effect on the protective action of bFGF against TNFα (L929 cells): nor did it inhibit the protective response to bFGF

Compound: C[C@@H]1C[C@H]2[C@@H]3CCC4=CC(=O)C=C[C@]4(C)[C@@]3(F)[C@@H](O)C[C@]2(C)[C@@]1(O)C(=O)CO [dexamethasone]
- effect on activation of Raf-B by EGF (Raf-B; [1]): had no effect
- effect on activation of MEKK by EGF (98 kD PC12 cell MEKK; [1]): had no effect

Compound: C=C[C@@]1(C)CC(=O)[C@]2(O)[C@@]3(C)[C@@H](O)CCC(C)(C)[C@@H]3[C@H](O)[C@H](OC(C)=O)[C@@]2(C)O1 [Forskolin, forskolin]
- effect of treatment alone on Raf-B (Raf-B; forskolin 50 μM): no appreciable effect
- effect on activation of Raf-B by EGF, NGF, and TPA (Raf-B; [2]): abolished
- effect of treatment alone on MEKK (98 kD PC12 cell MEKK; forskolin 50 μM): no appreciable effect
- effect on activation of MEKK by EGF, NGF, and TPA (98 kD PC12 cell MEKK; [2]): abolished
